Out of some 53,000 sequences screened, about 3,700 (7%) were called active.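 The calls were made as follows: active = gene knockdowns whose robust z-score for IL-1 alpha signal is at least 2 or at most -2, so actives lie on both sides; inactive = the rest.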 This is one part of the list.

The nature of the test: Components of the Cytosolic LPS Sensing Pathway: Gene Identification via Genome-wide siRNA Screen.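 Also: robust z of the log signal after scaling to non-targeting control siRNA wells of the plate.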 The note with it: RAW264.7 macrophages, IL-1a HTRF, actives lie on both sides, screened at 100 nM (by protocol), cells primed 5 h with Pam3CSK4 first. The gist of the method: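 Using IL-1a HTRF as read-out, the screen measured release from RAW264.7 cells after 48h siRNA knockdown (100 nM), 5 h Pam3CSK4 priming and 24 h cytosolic LipidA. Values were expressed relative to negative-control wells as robust z-scores.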
As for GGGUCCUGGUUUUACAUUCTT against Itpr1, the z-score was inactive: 1.59.
Consider CCUCCGGAGUAUAAACAAUTT against Nr1i3, for which the z-score was inactive: 0.21.
For the sequence GGUGGAGAGAAAGAGAAAATT against Mcm8, the z-score is inactive: 0.767.
Then GGACUUCUUCACCAUCUGGTT against Lcat, with inactive: -1.3.
In the case of GGAUCUACUUAUGAGCUAGTT against Rnf220 it was inactive: 0.896.
Then GGAGAUGUGAAGAUUCAGUTT against Vsig4, with inactive: 0.0265.
With GGCGGAAGCCAUGAAGAAATT against Kcnmb4, the z-score was inactive: 0.11.
Then GGAACAAAGACAUGUAUCATT against Zgpat, with inactive: -0.931; and GCUCUUUCUAUAAAAGGCCTT against Map3k9, with inactive: 0.887; and GGCACAAUUAGCUAAGAAUTT against Abi3bp, with inactive: -1.87.
GGUAAAAUACUACCUGAGATT against Abca15: the z-score was inactive: -0.0103.
In the case of GGAGUUCACAUUCUUUCUGTT against Cbx7 it was inactive: -1.15; in that of GGCUGCACAAAGAUGUUCATT against Yy1, active: 2.46; in that of GGAUGGUUACAUCAACUGCTT against Cabp1, inactive: 0.68.
In the case of “CCUACUCCACGGGUAUUUUTT against 1700065D16Rik” it was inactive: -0.331; in that of GCAACGACUCAACCAAUUCTT against Tbkbp1, inactive: 0.926; in that of GCAUACGAGGAAACUACAUTT against Chm, inactive: 1.48.
Then GGCAUACAAACACAAAAUUTT against Tmem218, with inactive: -1.69; and GGAUUCAUCGGGUCAGGAGTT against Mier1, with inactive: -1.43; and GGACAUCGUGCUCUAUCUCTT against Nrarp, with inactive: -1.07.
“CGUACAUGCUCCUUCUAUCTT against 2900005J15Rik”: the z-score is inactive: -0.646.
For the sequence GCGAUUUGUCUAGUCCAAATT against Zfp622, the z-score is inactive: -1.08.
Regarding GGAAGUUUUGGGAGUGUGUTT against Map3k20, the z-score was inactive: -1.08.
In the case of GGUUGACAUGGUUCAGUCATT against Tcf23 it was inactive: -0.499; in that of GGCUAAAACACUUAUCAAUTT against Poteg, active: -2.32.
On to GCAUUUCACUUUGAGAAAUTT against Ahrr, for which the z-score is inactive: -0.438.
Then “CCUCAAAACAGUGUGGACATT against 9630041A04Rik”, with inactive: -0.334; and CCAGGUGUUUGAUGCAUUCTT against Foxr2, with inactive: 1.11; and GGGCAGUAAAGCUUUCUUGTT against Actl9, with inactive: 1.05.
In the case of CCAAAGUUCCCUUAGCCAUTT against Cntrob it was inactive: 0.12; in that of GGUGACAUUACAUUUCAUATT against Pgam5, inactive: 0.486; in that of CGUUCAGUGUCUGCAGGUUTT against Mrps12, inactive: -0.0575.
For GGGUAUGAUGUGAUUGCUCTT against Eif4a2, the z-score is inactive: 0.0435.
In the case of GCCACUUACUUUUCUGAAATT against Commd7 it was inactive: 1.18.
On to GGACAUGAGGACUGUAUCATT against Clec4g, for which the z-score is active: -3.2.
In the case of GGAAUUUGCCUAUAUGAAGTT against Riok2 it was inactive: -0.867; in that of AAGGUCGUUUACAUGAACATT against Fbxw20, inactive: 1.19; in that of GGAGGAUUGUCCACAUGGATT against Ccl27a, active: 4.32.
In the case of CGGGACCUAUGUGAUCAUGTT against Casp1 it was inactive: -0.287; in that of GGACACCAUCAAUUGAUUATT against Wdr27, inactive: -0.127.
In the case of GCCCAACAACGCAGAAUUUTT against Cyp4v3 it was inactive: 1.25; in that of GGACUGCUAUGGGUCUUCATT against Clk3, inactive: -0.684.
As for GCUGAACCAAACCCAAAUGTT against Snph, the z-score is inactive: 0.00664.
In the case of CCAGAUAUGAUGGUGCAAGTT against Sfrp4 it was inactive: 0.351; in that of CCACAGUGAAUCGAGCUUATT against Olfr685, inactive: -0.597.
Then GGACAGCAUUCUGAGCAGUTT against Cx3cr1, with inactive: -0.341; and GCAGGAGAAAAGAAUCAAGTT against Gm5800, with inactive: -1.44.
Then GGACCACGCAAAAGAAUAUTT against Mtss1, with inactive: 0.0212.
In the case of GCCCGUCACAAUCAUUACCTT against Zfp523, the z-score was inactive: 1.59.
In the case of GCAGCUUUGCUCAGCCCAATT against Tex22 it was inactive: -1.12; in that of GCUAAUUCAAGAGGAACUATT against Ccdc18, inactive: -0.526.
As for GGAAAACAAAUUCAAGUGCTT against Tex9, the z-score was inactive: 1.51.
In the case of GCAGGGUUUCAAAGAUAACTT against Npepl1 it was inactive: -0.765.
Then “GGAAGUCUUCCAUGAUAUUTT against 4933400A11Rik”, with inactive: -0.752; and “CCAAUCCAAUGAAUGUUUCTT against A330070K13Rik”, with inactive: -1.75; and CCAUCCUCAACAAGAUCGATT against Rab4b, with active: 2.25.
For the sequence CGCCAAUUCAUCGUUGACUTT against Ccl3, the z-score is inactive: 0.773.
As to CGAAUUGAAUUCUACGAACTT against Pmm2, the z-score is inactive: 0.252.
In the case of GGCUCCUCUUUUAUCUACATT against Erg28 it was inactive: -0.881; in that of CCACCUCUCAAAUAAAACATT against Cyp2a5, inactive: -0.629; in that of GGAAUUUUAUUCAGAGGCUTT against Thoc5, inactive: -0.548.
Then GGACUGCACUGUCAUGGUATT against Coro1b, with inactive: -0.378; and GGUCCAGAUUCGAACACCATT against Babam1, with inactive: -1.13; and “CGUCCAACCACAGAUCUACTT against 4921536K21Rik”, with inactive: 0.752.
Regarding CCCACAUCUUAACUUGUUGTT against Rab5c, the z-score was inactive: 0.0792.
In the case of GGAUGCUAUUUUUGAAACCTT against Lins1 it was inactive: -0.0898.
In the case of GGUCAAUUCCAUGAUUACGTT against Pgm3 it was inactive: 0.538; in that of GCGGGAACUUAAAGUUUACTT against Yars, active: 3.18; in that of GCAGGGAAUAGCAAACUUATT against Nfil3, inactive: 1.18.
In the case of GGAGCGUGACUUUGUAUAATT against Ly6g6e, the z-score was inactive: 0.206.
In the case of “GGAGCAAGAAGAACAUUACTT against Csgalnact2” it was inactive: 0.844.
Then CCCAAUUUUUAGUCUUAUGTT against Gdpgp1, with inactive: -0.00619; and CCACUGAUUGUUGACUGCUTT against Trip6, with inactive: 1.81; and GGUUCAAGAAAAAACCCAATT against Ezh1, with inactive: 0.0229.
As for GGGUAUAUUUUUGAUACCUTT against Ncor2, the z-score is inactive: 0.504.
Then GGAUGGAACAGACUAUAGUTT against Oacyl, with inactive: -0.643; and GGCACCUAGAAUGAGAUGCTT against Nhlh2, with inactive: 0.498; and CCAAAACAAUACUCACCACTT against Mfap4, with inactive: -0.361.
In the case of “GGUCCUAAUGCACUUUUUATT against 1700093K21Rik” it was inactive: 0.718; in that of GGUGGAUGCAAUUCUCUGUTT against Qdpr, inactive: -0.631.
Then GGGAAAUCCUUUCUCAGUATT against Ugt3a2, with inactive: -1.92; and GGUUCUCAAAGAAAAGUUUTT against Bola3, with inactive: -0.623; and GCCUAAGGUCCAAACCAAGTT against Rpl29, with inactive: 0.134.
Consider GUGUAUCACAAGACUAUGCTT against Leap2, for which the z-score was inactive: 1.86.
In the case of GGAAAUUGCCUUCUACGGGTT against Abcd1 it was inactive: 0.116; in that of GGACAUAAGAAAAUGACCATT against Mbtd1, inactive: 0.148.
For CCUCUUUCAUAACUGAUGUTT against Fam161b, the z-score is inactive: 0.0861.
Then CCUUCAUUCUCAUUGGCAUTT against Olfr591, with inactive: -0.163; and GGAAAUCCAUUGUUUAAAGTT against Wt1, with active: 2.01.
In the case of GGUGGAGUUUGUGCAGAAGTT against Pla2g4e it was inactive: -0.658.
Then GGCUGAAAAGAAAAACAGATT against Rgs5, with inactive: -0.378.
For GCGUGCUUAUGAACAUAGUTT against Spen, the z-score is active: 2.02.
In the case of GGAAUUCAGCGAAGAGAAUTT against Rgs10 it was inactive: -1.48.
For GGAAAGAAGAAAUGAGAAGTT against Gm9871, the z-score is inactive: -1.57.
As to GCCCUCACAGCCAGAAUUGTT against Pram1, the z-score was active: -2.15.
Then GGGAGUAUUACUCUAUUCUTT against Fam168b, with inactive: 0.569; and CCUGACGAUCAAAUCACUGTT against Mvb12a, with inactive: 0.0387.
For GGAUCAUCAAGGACUUCAUTT against Ppil1, the z-score is inactive: 0.464.
Then GGAACCUACUGCUACAUCATT against Sftpc, with active: 2.24; and GGGACAUCUUCUCCAAUGATT against Slc24a3, with inactive: -0.354; and GGUCCAGCUGUUCAUGACUTT against Kcnn4, with inactive: 0.268.
In the case of GCGGCUUUGGAAUGACUCUTT against Samd8 it was inactive: -0.0645; in that of GGUUCUAUCUGAUAGGCGATT against Gdf9, inactive: 0.574; in that of GGUUCUAGCAAACGGAGAATT against Phf12, inactive: 1.76.
Turning to GGAAGACAACAACCUAGAATT against Rpn1, the z-score is inactive: -0.894.
Then GGGAAGGCACACCAUAGAATT against Zfp369, with inactive: 1.11.
In the case of CCAGGAGACCCAAUGUUGUTT against Pramel25 it was inactive: -0.48.
